Laboratory results published in the supplement of paper PMC12595434, “Development of retinoid nuclear receptor pathway antagonists through targeting aldehyde dehydrogenase 1A3” (iScience, 2025).
This is one part of the list. Single values of this set are uncertain.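 Tm was set to 64 °C where no melting was found, and many curves are irregular.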

By UniProt entry, the sequences of proteins in these tests, tags left out. Where a name states a change or a piece, a line headed by the entry shows the natural chain unless it says otherwise.
UniProt Q13404: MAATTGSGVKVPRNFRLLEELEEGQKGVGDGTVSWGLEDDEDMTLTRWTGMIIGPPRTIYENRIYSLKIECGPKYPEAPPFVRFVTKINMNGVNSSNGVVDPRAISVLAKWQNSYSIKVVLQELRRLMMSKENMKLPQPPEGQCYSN
UniProt Q13322: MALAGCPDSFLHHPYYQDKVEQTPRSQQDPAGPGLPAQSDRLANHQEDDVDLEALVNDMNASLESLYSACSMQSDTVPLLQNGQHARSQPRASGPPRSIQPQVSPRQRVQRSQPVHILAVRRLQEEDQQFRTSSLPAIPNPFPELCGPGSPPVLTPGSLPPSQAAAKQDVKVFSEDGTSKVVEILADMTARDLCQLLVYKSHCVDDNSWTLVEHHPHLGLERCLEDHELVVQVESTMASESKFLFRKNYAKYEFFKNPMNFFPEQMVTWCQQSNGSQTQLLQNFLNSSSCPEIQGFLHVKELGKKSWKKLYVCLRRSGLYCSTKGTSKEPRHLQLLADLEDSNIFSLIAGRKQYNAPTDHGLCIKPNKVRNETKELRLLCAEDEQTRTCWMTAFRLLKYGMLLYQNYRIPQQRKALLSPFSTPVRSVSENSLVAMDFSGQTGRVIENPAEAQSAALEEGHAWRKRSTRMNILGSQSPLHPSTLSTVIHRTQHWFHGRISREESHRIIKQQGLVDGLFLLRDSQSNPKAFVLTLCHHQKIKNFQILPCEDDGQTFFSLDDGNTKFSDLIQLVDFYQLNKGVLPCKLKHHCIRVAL
UniProt Q13480: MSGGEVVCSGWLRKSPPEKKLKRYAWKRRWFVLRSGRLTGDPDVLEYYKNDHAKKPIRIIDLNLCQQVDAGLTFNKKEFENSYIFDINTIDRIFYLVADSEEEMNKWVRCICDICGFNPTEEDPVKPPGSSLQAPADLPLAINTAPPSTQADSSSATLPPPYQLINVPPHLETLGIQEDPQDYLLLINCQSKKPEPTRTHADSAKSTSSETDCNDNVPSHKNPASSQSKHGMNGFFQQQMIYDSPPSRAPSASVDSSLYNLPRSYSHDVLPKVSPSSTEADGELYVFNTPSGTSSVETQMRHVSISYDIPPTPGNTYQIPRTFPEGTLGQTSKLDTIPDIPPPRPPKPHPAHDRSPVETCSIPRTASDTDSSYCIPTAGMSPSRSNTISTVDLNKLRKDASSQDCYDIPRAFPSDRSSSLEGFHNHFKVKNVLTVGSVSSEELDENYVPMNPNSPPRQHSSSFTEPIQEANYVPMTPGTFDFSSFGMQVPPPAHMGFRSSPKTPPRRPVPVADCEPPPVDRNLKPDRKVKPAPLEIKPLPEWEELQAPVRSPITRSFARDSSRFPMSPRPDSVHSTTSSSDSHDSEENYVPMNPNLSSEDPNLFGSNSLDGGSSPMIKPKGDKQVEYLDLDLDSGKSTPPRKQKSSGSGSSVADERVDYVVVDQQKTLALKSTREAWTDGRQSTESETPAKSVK
UniProt Q13573: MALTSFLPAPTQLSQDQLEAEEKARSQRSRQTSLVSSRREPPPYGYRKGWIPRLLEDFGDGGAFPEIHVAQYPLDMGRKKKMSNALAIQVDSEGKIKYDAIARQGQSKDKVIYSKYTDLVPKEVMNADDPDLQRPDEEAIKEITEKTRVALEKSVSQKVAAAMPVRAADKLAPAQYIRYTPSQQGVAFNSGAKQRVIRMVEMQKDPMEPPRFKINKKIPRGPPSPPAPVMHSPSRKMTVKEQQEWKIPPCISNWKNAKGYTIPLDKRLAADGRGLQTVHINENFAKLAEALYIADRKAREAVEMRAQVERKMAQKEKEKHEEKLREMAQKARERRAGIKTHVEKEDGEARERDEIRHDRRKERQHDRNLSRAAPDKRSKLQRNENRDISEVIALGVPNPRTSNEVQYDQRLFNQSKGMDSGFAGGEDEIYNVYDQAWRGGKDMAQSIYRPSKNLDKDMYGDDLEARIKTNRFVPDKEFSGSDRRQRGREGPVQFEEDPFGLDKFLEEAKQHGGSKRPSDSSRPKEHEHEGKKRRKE
UniProt Q13530: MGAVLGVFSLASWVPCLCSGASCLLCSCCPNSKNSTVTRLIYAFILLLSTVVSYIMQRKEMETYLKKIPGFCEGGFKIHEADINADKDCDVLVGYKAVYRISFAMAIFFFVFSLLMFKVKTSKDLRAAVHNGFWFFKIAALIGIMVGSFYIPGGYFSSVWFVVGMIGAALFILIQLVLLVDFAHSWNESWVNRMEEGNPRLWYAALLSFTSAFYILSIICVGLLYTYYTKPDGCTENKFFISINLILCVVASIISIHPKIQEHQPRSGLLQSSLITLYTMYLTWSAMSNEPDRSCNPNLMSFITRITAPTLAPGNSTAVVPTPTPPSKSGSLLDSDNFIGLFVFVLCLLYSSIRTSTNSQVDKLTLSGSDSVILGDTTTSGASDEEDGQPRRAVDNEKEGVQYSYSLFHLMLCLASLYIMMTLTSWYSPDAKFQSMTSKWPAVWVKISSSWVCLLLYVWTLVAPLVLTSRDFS
UniProt Q14974, whole entry: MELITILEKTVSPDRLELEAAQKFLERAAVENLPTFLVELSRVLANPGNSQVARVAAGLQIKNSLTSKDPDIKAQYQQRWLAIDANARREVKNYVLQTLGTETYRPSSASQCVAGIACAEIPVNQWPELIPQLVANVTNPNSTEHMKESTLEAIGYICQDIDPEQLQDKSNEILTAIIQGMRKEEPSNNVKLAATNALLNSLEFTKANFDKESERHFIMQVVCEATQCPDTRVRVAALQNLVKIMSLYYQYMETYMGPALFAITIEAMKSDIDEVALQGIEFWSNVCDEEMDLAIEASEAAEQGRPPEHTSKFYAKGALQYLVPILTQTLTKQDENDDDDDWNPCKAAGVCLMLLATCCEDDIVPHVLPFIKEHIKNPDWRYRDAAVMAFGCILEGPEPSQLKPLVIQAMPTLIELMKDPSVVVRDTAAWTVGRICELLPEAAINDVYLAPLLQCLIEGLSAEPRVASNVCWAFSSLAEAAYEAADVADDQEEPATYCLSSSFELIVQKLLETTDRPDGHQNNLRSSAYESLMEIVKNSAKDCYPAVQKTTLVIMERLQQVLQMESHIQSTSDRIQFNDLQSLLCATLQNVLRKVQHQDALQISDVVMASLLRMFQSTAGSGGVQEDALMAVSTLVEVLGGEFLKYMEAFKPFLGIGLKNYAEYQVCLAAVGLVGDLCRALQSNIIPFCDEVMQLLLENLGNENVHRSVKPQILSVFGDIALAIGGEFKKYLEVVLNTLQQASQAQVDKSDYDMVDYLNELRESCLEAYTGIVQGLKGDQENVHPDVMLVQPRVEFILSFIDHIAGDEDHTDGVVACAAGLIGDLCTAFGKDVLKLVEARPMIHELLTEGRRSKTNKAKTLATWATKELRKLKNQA
UniProt Q14118: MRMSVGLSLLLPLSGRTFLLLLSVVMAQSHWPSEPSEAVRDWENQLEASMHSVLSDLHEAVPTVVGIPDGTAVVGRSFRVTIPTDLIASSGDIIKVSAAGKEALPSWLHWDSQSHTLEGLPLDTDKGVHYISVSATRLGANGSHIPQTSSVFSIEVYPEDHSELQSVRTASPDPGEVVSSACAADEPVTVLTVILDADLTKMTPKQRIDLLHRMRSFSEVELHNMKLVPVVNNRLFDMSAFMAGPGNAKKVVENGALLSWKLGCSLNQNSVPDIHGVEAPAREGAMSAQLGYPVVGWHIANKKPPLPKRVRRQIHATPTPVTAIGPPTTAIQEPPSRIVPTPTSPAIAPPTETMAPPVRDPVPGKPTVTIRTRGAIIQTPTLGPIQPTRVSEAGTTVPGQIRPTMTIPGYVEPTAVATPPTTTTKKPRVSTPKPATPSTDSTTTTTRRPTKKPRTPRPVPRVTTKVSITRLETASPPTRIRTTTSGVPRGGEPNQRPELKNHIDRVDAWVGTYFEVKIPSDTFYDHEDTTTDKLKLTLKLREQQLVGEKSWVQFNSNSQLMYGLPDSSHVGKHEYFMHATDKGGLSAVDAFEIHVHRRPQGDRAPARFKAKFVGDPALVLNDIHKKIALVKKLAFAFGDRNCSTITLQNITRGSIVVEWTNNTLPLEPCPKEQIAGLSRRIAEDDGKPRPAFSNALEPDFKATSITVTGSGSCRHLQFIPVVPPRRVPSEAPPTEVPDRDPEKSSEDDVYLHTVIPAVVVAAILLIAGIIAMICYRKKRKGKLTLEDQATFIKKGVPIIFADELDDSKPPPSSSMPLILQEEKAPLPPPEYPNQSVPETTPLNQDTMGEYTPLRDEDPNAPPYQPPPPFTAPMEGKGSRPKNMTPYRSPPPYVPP
UniProt Q13620, whole entry: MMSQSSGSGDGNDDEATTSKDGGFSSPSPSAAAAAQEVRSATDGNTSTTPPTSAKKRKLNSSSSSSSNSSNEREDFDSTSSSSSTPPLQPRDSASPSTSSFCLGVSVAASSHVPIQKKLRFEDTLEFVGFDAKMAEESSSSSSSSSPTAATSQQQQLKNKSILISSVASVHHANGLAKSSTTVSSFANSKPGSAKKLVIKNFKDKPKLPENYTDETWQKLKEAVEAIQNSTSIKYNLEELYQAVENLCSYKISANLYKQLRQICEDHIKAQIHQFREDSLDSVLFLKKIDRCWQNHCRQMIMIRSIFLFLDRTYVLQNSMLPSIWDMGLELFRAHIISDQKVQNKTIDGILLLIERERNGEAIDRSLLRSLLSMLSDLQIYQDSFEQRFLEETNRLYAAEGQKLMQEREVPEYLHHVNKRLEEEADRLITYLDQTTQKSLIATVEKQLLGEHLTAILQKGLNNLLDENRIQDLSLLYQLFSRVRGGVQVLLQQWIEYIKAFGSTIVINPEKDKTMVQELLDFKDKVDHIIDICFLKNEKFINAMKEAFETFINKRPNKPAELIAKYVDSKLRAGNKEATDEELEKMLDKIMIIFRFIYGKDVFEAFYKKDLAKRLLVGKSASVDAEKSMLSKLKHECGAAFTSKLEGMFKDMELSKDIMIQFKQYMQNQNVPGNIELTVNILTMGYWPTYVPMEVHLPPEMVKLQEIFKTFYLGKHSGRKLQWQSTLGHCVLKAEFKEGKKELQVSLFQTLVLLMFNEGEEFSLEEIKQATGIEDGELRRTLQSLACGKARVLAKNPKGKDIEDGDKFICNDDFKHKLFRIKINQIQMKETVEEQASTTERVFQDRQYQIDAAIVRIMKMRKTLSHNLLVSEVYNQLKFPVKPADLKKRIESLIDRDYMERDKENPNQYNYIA
UniProt Q15013: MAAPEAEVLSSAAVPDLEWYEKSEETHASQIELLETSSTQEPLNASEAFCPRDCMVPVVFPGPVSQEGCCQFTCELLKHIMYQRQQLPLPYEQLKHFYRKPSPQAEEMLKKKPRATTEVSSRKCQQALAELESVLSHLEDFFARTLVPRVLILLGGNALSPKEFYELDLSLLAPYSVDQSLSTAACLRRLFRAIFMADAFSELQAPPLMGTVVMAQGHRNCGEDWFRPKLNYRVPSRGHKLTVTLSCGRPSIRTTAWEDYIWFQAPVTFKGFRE
UniProt Q13310, whole entry: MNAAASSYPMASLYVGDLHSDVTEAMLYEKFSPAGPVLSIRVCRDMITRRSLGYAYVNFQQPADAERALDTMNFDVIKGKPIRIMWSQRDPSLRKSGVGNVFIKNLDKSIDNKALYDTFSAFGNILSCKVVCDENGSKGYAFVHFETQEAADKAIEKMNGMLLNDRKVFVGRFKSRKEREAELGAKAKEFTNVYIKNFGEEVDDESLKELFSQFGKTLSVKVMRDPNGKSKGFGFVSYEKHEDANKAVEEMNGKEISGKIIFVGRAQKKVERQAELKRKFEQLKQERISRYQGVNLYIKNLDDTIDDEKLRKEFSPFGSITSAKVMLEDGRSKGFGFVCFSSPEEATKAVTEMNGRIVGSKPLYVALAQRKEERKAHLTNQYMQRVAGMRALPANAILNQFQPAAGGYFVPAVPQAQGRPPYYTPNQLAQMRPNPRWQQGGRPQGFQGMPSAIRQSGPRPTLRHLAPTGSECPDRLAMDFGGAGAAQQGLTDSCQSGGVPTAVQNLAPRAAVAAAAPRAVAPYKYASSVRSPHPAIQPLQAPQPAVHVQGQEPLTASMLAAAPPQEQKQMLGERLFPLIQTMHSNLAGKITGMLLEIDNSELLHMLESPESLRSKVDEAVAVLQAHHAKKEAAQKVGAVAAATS

Compound: CCc1cnccc1C(=O)Nc1cc2c(cc1F)NC(=O)CC2
Assay: melting temperature shift (DMSO Tm minus MBE1-treated Tm) in cellular thermal proteome profiling; higher = less thermal stabilization by MBE1 (negative = stabilized by MBE1)
Settings: A375

Target	melting temperature shift (MBE1 concentration: 100 nM) [°C]	melting temperature shift (MBE1 concentration: 1 uM) [°C]
IRF3 (UniProt Q14653)	-0.655	-0.208
TARDBP (UniProt Q13148)	-0.0513	-0.429
FRG1 (UniProt Q14331)	1.23	1.22
UniProt Q13404	-1.13	-1.36
ACACA (UniProt Q13085)	-0.621	-0.395
GRB10 (UniProt Q13322)	-0.115	
EIF3A (UniProt Q14152)	-0.268	-0.311
UBAP2L (UniProt Q14157)	-2.45	-2.16
UniProt Q13114		-1.31
GAB1 (UniProt Q13480)		1.09
UniProt Q14849	-0.889	0.586
SNW1 (UniProt Q13573)		-2.49
WTAP (UniProt Q15007)	-0.574	-0.546
SERINC3 (UniProt Q13530)	-3.03	-4.9
KPNB1 (UniProt Q14974)	0.745	-0.25
DAG1 (UniProt Q14118)		-3.33
BLMH (UniProt Q13867)		-1.38
CUL4B (UniProt Q13620)	-0.765	0.429
SRSF6 (UniProt Q13247)	-0.513	0.208
UniProt Q13761	-0.852	-2
PTPRS (UniProt Q13332)	-2.25	0.61
UniProt Q13325	-1.05	-0.268
UniProt Q15013		1.61
RCN2 (UniProt Q14257)	-1.63	0.919
TP53BP2 (UniProt Q13625)		4.8
PABPC4 (UniProt Q13310)	0.495	0.305
UniProt Q13207	-0.426	-0.367

7 entries from above in a different format.
Target,melting temperature shift (MBE1 concentration: 100 nM) [°C],melting temperature shift (MBE1 concentration: 1 uM) [°C]
IRF3 (UniProt Q14653),-0.655,-0.208
TARDBP (UniProt Q13148),-0.0513,-0.429
FRG1 (UniProt Q14331),1.23,1.22
UniProt Q13404,-1.13,-1.36
ACACA (UniProt Q13085),-0.621,-0.395
GRB10 (UniProt Q13322),-0.115,
EIF3A (UniProt Q14152),-0.268,-0.311
